According to patent US20030170203A1:
These are yes or no findings as the source states them, for the method shown. For some assays here: Binding seen in cells or lysates may run through a third protein. Some entries that bind do so weakly or less than the wild type.

Protein sequences, listed by entry. Tags and fused reporters are not part of them. Residues count along the entry.
UniProt P25445, residues 191-335: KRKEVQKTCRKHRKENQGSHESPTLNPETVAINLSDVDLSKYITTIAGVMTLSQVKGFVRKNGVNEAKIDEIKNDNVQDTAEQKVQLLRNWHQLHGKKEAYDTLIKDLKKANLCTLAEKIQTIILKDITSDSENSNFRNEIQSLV
UniProt O95150, residues 72-251: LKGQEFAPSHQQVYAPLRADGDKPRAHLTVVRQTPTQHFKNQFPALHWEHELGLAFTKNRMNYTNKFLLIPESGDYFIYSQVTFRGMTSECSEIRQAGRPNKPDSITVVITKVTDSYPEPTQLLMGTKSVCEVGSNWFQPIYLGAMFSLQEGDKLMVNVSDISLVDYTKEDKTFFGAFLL
UniProt Q13158: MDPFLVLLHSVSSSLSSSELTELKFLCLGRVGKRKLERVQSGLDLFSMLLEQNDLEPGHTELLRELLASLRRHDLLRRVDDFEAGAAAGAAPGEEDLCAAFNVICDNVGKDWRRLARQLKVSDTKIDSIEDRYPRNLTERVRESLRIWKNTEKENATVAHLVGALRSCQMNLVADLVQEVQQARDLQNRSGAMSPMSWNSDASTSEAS

Tests used:
[1] = biological target: T1, death domain truncated DR3 (DR3_DD, aa 1-345) on cells (human) (UniProt Q93038); test: flow cytometry on transiently transfected cells
T1 sequence: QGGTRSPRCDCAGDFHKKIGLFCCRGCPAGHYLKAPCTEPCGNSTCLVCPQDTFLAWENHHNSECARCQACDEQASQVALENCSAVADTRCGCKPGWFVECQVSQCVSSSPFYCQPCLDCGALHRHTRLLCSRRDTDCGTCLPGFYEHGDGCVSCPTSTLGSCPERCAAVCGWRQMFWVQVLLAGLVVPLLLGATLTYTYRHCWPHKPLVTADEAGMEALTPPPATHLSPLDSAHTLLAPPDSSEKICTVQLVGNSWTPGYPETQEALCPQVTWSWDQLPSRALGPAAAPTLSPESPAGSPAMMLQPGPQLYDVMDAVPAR

[2] = biological target: GST fusion of the cytoplasmic domain of Fas (UniProt P25445); test: GST pull-down of in vitro translated 35S-labeled protein, SDS-PAGE and autoradiography

FLAG-tagged soluble form of TNF-gamma-beta (aa 72-251) (from UniProt O95150 72-251) (ligand)
binding [1]: binds

FADD (from UniProt Q13158 1-208)
binding [2]: binds
